Test results reported in article PMC4332865.

Protein sequences, listed by entry. Tags and fused reporters are not part of them. Residues count along the entry.
UniProt Q61701, 3-385 T149A/T165A: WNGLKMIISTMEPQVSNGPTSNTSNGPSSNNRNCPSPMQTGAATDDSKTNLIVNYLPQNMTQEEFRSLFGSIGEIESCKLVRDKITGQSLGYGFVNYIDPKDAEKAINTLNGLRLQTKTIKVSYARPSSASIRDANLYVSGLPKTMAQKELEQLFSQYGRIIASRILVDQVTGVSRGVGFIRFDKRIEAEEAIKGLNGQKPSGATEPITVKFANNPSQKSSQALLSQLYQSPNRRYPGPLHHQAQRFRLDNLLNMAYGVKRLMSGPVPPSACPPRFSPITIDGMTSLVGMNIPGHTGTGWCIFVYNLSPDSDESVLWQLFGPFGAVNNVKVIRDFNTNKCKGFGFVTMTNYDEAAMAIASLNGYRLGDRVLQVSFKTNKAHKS

Experiments:
[1] = target: GST-HuDpd T149A,T165A (mouse) (UniProt Q61701); assay: EMSA; details: 2 uM protein, 2 nM RNA, 150 mM NaCl, 20 mM Tris (pH not stated), 1.5 mM MgCl2, 0.5 mM DTT, 0.5 ug/ul tRNA, 20 min, room temperature, 5% PAGE in TBE, recombinant protein, residues 3-385, protein details: N-terminal GST (pGEX-2T), label: biotin (unlabeled as competitor), probe letters rebuilt from the primers and the genome, part of a longer molecule
[2] = target: GST-HuDpd T149A,T165A (mouse) (UniProt Q61701); assay: competition with a labelled probe; details: 8 nM unlabeled vs 2 nM labeled Nova1 A, 150 mM NaCl, 20 mM Tris (pH not stated), 1.5 mM MgCl2, 0.5 mM DTT, 0.5 ug/ul tRNA, 20 min, room temperature, 5% PAGE in TBE, recombinant protein, residues 3-385, protein details: N-terminal GST (pGEX-2T), label: biotin (unlabeled as competitor), probe letters rebuilt from the primers and the genome, part of a longer molecule

Sequence	binding result ([1]; little or no shift)	binding result ([2]; does not compete)	binding result ([1]; smaller shift than B1, B3)	binding result ([2]; competes)	binding result ([1]; among greatest shifts)
AUGACCAUCCUUUUCCUUACUAUGGUUAUUUCAUACUUCGGUUGCAUGAAGGCGGCGCCCAUGAAAGAAGUAAACGUCCACGGACAAGGCAACUUGGCCUACCCAGGUGUGCGGACCCAUGGGACUCUGGAGAGCGUGAAUGGGCCCAGGGCAGGUUCGAGAGGUCUGACGACGACAUCACUGGCUGACACUUUUGAGCACGUCAUCGAAGAGCUGCUGGAUGAGGACCAGAAGGUUCGGCCCAACGAAGAAAACCAUAAGGACGCGGACUUGUACACUUCCCGGGUGAUGCUCAGCAGUCAAGUGCCUUUGGAGCCUCCUCUACUCUUUCUGCUGGAGGAAUACAAAAAUUACCUGGAUGCCGCAAACAUGUCUAUGAGGGUUCGGCGCCACUCCGACCCUGCCCGCCGUGGGGAGCUGAGCGUGUGUGACAGUAUUAGCGAGUGGGUCACAGCGGCAGAUAAAAAGACUGCAGUGGACAUGUCUGGCGGGACGGUCACAGUCCUAGAGAAAGUCCCGGUAUCCAAAGGCCAACUGAAGCAGUAUUUCUACGAGACCAAGUGUAAUCCCAUGGGUUACACCAAGGAAGGCUGCAGGGGCAUAGACAAAAGGCACUGGAACUCGCAAUGCCGAACUACCCAAUCGUAUGUUCGGGCCCUUACUAUGGAUAGCAAAAAGAGAAUUGGCUGGCGAUUCAUAAGGAUAGACACUUCCUGUGUAUGUACACUGACCAUUAAAAGGGGAAGAUAG [Bdnf CDS probe]	binds more weakly	no binding			
CCUGCGGAGGCUAAGUGGAGCUGACAUACUAUUUCCUGGCAGUGCAGGAGGAAUUUCUGAGUGGCCAUCCUAAGGUCUAGGAUGGAGGUGGGGAAUGGUACUUGAGACAUUCCUAAAGGAAGGCUCGGAAGCACCCUUCAGAGCAGGCUCUGGAAUGAUGUGUCAAGUUGCUUAGGCCUUCUGCUUUAAGUGCCUACAUUACCUAACAGUGCUCAAGAGGUUCUCGAUUGGAGAACCACACUCAAAUCCAUUUAUAGCCUCCAUCCCAUUUCUAAAUAAUUGUGUAUAAAGUUGGAUUAACCUGGAGCAACUUUGGAUCCAAAUAUGGCACAGCAAUAAUGAUAUUAAUGCAGCAUGAUGGGAAAUGUUUGCUGUGAAGAGAAUUGAUUUGCUUUGAGCUUAGACUUCAGGAAGCCUAGGUUUUUUAUUUUUUUAUUUUUGAGACAUUUUGGUAAAAGGAAAAAAAGAAAACAAACAAACAAACAAACAAAACCAGAAAAAGCAUCAAAACUCAGGCAGAAUGAGCAAUGUCUGAAAGGGCUAGAAAAACAAGACAUAGCAAGGUGCUUUCACUGUGAAAGAGACAAGAACACAGGAGGAAAUAUUGCUUCAGUGAAGAGCACAGACGGCUCCUGCCAAUUUAUUACAAGAGUCCCGUCUGUACUUUACCCUUUGGGGUUAGAAGUCAAGUUGGAAGCCUGAAUGAAUGGACCCAAUGAGAACUAGUGUUAAGCCCAUUUCCCUAGUCAGGUUUUUUUCAAGCGUGAAUGUGUUAGUGGUUACUCUCCUGGGUUCCUGAGCAUCAGAAAAAAAAAAAAAAAGAGGCAAACAAUCGCUUCAUCUUAGGAGUG [Bdnf 3'UTR B2]			binds	binds	
CUCUUUCAGAAAACAGAUUAAAAAAACAAAAAACAAAAAAAAAAAAACAAAAAACAAAAACAAAAAUUGGAACCAAAACAUUCCGUUUACAUUUUAGACACUAAGUAUCUUCGUUCUUGUUAGUACUCUGUUUUACUGCUUUCGACUUCUGAUAGCGUUGGAAUUAAAACAAUGUCAAGGUGCUGUUGUCAUUGCUUUACUGGCGUAAGGGACGGGGAAUGGGAGGGGUAGAUUUCUGUUUGUUUUGUGUUUUAUUUUGUUUGUUUGUUUGUUUUGUUUUUUAGUUCCACCCGGAGUAGGGAUGGAGAAAAUUUCUUCACUAUCCAUUCUGGUUGAUAAAGCGUUACAUUUGUAUGUUGUAAAGAUGUUUGCAAAAUCCAAUCAGAUGACUGGAAAACAAAUAAAAAUUAAGGCAACUGAAUAAAAUGCUCACACUCCACUGCCCAUGAUGUAUCUCCCUGGUCCCCCUCAGCUCACUCUUCUGGCAUGGGUCAGGGAAAAUUGCUUUUAUUGGAAAGACCAGCAUUUGUUCAAAGCAUACUCUUUCCCUCCCUCCUCCCAUUUUGGUCCCUUCUUUUUGUUUUGUUUUAAGAAAGAAAAUUAAGUUGCGCGCUUUAAAAUAUUUUACUACUGCUACAAACAGAUGAACAAUGUGUGUCAUUUUAUGACACUCAUGGAAAACAGUGAUUUUUUUUUACCCUAAAGAAAAACAAAUAAAAAUAACCCAAAAUAUUCUUUUUUUAAAAGGCAUAAAUAUUGGGUAAAUUGUAAUAUGGCCUAACAGUGUUUGCAGAUAAAAGUUAUUGUAUACACCCAGAUACUUAGAUAAGAGCAGGGAUCCACACUGCCAUUGAAAUAGGACUGAAUGGCCCU [Bdnf 3'UTR B1]				binds	binds
GAAAGGAAACAGAAGUGGACGUCCGCUGUGACUCAGGGAGUGAAGAUACCAUCAGCAAAUAGUUUCUUUUUUGUUCAUUCGUUCCUUUCGAGUUAGCCUGUCUUUUGGAAUACCACUGAAUAUGCUGUUUUUGAAAGACUUCAUGUAGCAUAGAUUGUUUUGUGCCGUUUACCAAAUUAACCUUUGUCAUCGUUUUUUAACCUAUUCAGGAAUGCUUGGAAUAUCUGCUCUAUGUUAACUUUUUGCAGCUUCAUUCUGAGAGACAUUAGUCAAACAAACAAAAGGAUCCCCAUCACAAUCUUACAGUACUGCAAGGGCCAGGUCUGUUAAUCGGCUUCACAGGAGACAUCAGCAAUUGUGUGGUCAGUGGCUGGCUCUCUUACCCACUAAGAUACAUCAUAGCUACAUGUUGGUGGUUUAUGUUGACCUGAGAUUUAUUUGUUAAAAUCUCUUCUUCGUUUCUGUUCGUUCUGGUUCUGUUCUGUUCUGUUCUGUUCUGUUUUGGUUUUAAAGUCUUGCUGUGGUCUCUUGUUGGCAGAAAUGUUUUAUGCAUGGCAGCAGGCCUGUUGCUUUUUUAUAGUGAUUCCCAUUGAAACUGUAAGUAAAUGUCUGUGGCCUUGUUCUCUCUAUGGUAAAGAUAUUAUUCACCAUGUAAAACAAGAAAAAAUAUUUAUUGUAUUUUAGUAUAUUUAUAUAAUUAUGUUAUUGAAAAAAUUGGCAUUAAAACUUAACCACAUCAGAAGCCUAUUGUAAAUACAGGUUCUAUUUAAGUGUACCAAUUAACAUAUAAUAUAUGUUUUAAAUAUAGAAUUUUUAAUGUUUUUAAAUAUAUUUUCAAA [Bdnf 3'UTR B3]				binds	binds
UGGAUUUAUGUUGUAUAGAUUAUAUUGAGACAAAAUUAUCUAUUUGUAUAUAUACAUAACAGGGUAAAUUAUUCAGUUAAGAAAAAAUAAUUUUAUGAACUGCAUGUAUAAAUGAAGUUUAUACAGUACAGUGGUUCUACAAUCUAUUUAUUGGACAUAUCCAUGACCUGAAAGGAAACAGUCAUUUGCGCACAACUUUAAAAGUCUGCAUUACAUUCCUCGAUAAUGUUGUGGUUUGUUGCCGUUGCCAAGAAUUGAAAACAAAAAGUUUAAAAAAAAUAAUAAUAAAUUGCAUGCUGCUUUAAUUGUGAAUUGAUAAUAAACUGUCCCUCUUUCAGAAAACAGAUU [Bdnf 3'UTR A (short)]	binds more weakly	no binding			

For some of these results: A negative result means that nothing was seen under these conditions. For some of these results: At least one verdict was read from the data and is not stated in words by the source. Construct, isoform or probe ends are uncertain for at least one entry. For some of these results: A weaker result is weaker than the reference pair of the same experiment.
